Results deposited as PubChem BioAssay AID504793 (Drosophila RNAi Screening Center, 2011)
Purpose: 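Whole-genome screen for parts of the DNA damage checkpoint at G2/M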 (primary screen). System: Drosophila S2R+ cells. Reagents: long dsRNA against Drosophila genes, about 0.25 µg dsRNA per well. Time to read-out: 4 days of dsRNA, then 4 hours of drug before read-out. Conditions: doxorubicin 0.5 µM for 4 hours to cause double-strand breaks, in cells also given a low, harmless dose of dsRNA against nbs to sensitise the assay. Read-out: 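Mitotic index as the number of phospho-histone H3-positive cells in each well following doxorubicin, given as raw counts without normalisation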. Reading the numbers: mitotic cells: higher = more cells in mitosis, weaker G2 arrest. Rule for the call: 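a call needs confirmation in secondary tests, with other dsRNAs and a check of mitotic timing without damage, not just a high primary count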. Calls: active = confirmed in follow-up tests; inactive = not confirmed.
The screen tested about 23,000 reagents; this is a random part of those with a known target gene and a result. In the full data, 62 (0.27%) got an active call. 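Calls come from follow-up tests whose scores are not deposited, so confirmed genes may have low counts here; counts are not normalised per plate.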 Raw values are not corrected between plates. A number with no mark means an inactive call. Reagents against one gene are numbered here. A plus sign joins genes that one reagent is predicted to hit. Reagent sequences are not shown.

Gene	reagent	mitotic cells, replicate 1	mitotic cells, replicate 2
spn-F	1	9	
spn-F	2	3	
Obp19b (Odorant-binding protein 19b)	1	8	
Obp19b (Odorant-binding protein 19b)	2	10	
CG14551	1	11	
Gnptab	1	3	
Jon25Bii (Jonah 25Bii)	1	2	
Jon25Bii (Jonah 25Bii)	2	4	
att-ORFB + DPCoAC	1	8	
Jheh3 (Juvenile hormone epoxide hydrolase 3)	1	7	
Jheh3 (Juvenile hormone epoxide hydrolase 3)	2	2	
Map60 (Microtubule-associated protein 60)	1	4	
Pepck1 (Phosphoenolpyruvate carboxykinase 1)	1	1	
Pepck1 (Phosphoenolpyruvate carboxykinase 1)	2	3	
CG12115	1	13	
eIF3j (eukaryotic translation initiation factor 3 subunit j)	1	7	
Imp (IGF-II mRNA-binding protein)	1	6	
Imp (IGF-II mRNA-binding protein)	2	11	
rho-7 (rhomboid-7)	1	6	
Met75Ca + Met75Cb	1	6	
Met75Ca + Met75Cb	2	5	
CG31128	1	9	
CG10584	1	12	
Ssb-c31a (Single stranded-binding protein c31A)	1	5	
Ssb-c31a (Single stranded-binding protein c31A)	2	5	
gpp (grappa)	1	5	
gpp (grappa)	2	7	
CG17776	1	2	
CG17776	2	8	
dy (dusky)	1	13	
dy (dusky)	2	5	
CG1663	1	5	
CG1663	2	10	
CG1663	3	4	
Nup93-1 (Nucleoporin 93kD-1)	1	5	
CG3777	1	10	
CG3777	2	12	
CG32318 + Klp61F + Psf1	1	145	
CG32984	1	13	
CG32984	2	6	
bark (bark beetle)	1	7	
bark (bark beetle)	2	3	
Adgf-B (Adenosine deaminase-related growth factor B)	1	8	
Adgf-B (Adenosine deaminase-related growth factor B)	2	11	
Tbc1d8-9 (TBC1 domain family member 8/9)	1	3	
CG32269 + CG32270	1	8	
Jasper (JIL-1 anchoring and stabilizing protein)	1	5	
AgmNAT (Agmatine N-acetyltransferase)	1	19	
CG13084	1	3	
Ance-2	1	6	
CG4704	1	9	
ODA-Dnal1 (Outer dynein arm dynein axonemal light chain 1)	1	6	
ODA-Dnal1 (Outer dynein arm dynein axonemal light chain 1)	2	7	
CG11698	1	10	
Gycalpha99B (Guanylyl cyclase alpha-subunit at 99B)	1	9	
Gycalpha99B (Guanylyl cyclase alpha-subunit at 99B)	2	4	
Blos4	1	5	
Blos4	2	4	
TwdlJ (TweedleJ)	1	16	
CG3358	1	4	
CG15249	1	4	
Acat1 (Acetyl-CoA acetyltransferase 1)	1	6	
Acat1 (Acetyl-CoA acetyltransferase 1)	2	2	
RpL7-like + CG34164	1	7	14
RpL7-like + CG34164	2	3	
pcx (pecanex)	1	11	
pcx (pecanex)	2	10	
pcx (pecanex)	3	11	
pcx (pecanex)	4	11	
pcx (pecanex)	5	8	
pcx (pecanex)	6	1	
CG14947	1	7	
dnk (deoxyribonucleoside kinase)	1	7	
dnk (deoxyribonucleoside kinase)	2	1	
Ir85a (Ionotropic receptor 85a)	1	7	
Ir85a (Ionotropic receptor 85a)	2	4	

10 entries from above, set out differently.
Jon25Bii (Jonah 25Bii) #1: mitotic cells, replicate 1 = 2
Jon25Bii (Jonah 25Bii) #2: mitotic cells, replicate 1 = 4
att-ORFB + DPCoAC: mitotic cells, replicate 1 = 8
Jheh3 (Juvenile hormone epoxide hydrolase 3) #1: mitotic cells, replicate 1 = 7
Jheh3 (Juvenile hormone epoxide hydrolase 3) #2: mitotic cells, replicate 1 = 2
Map60 (Microtubule-associated protein 60): mitotic cells, replicate 1 = 4
Pepck1 (Phosphoenolpyruvate carboxykinase 1) #1: mitotic cells, replicate 1 = 1
Pepck1 (Phosphoenolpyruvate carboxykinase 1) #2: mitotic cells, replicate 1 = 3
CG12115: mitotic cells, replicate 1 = 13
eIF3j (eukaryotic translation initiation factor 3 subunit j): mitotic cells, replicate 1 = 7
